Measured values taken from the supplement of paper PMC6411743.
± gives the standard deviation of the averaged measurements. The list shows a part of the results, in another mix than the full data.

Assays:
Assay in all cases: NP40-soluble protein abundance relative to vehicle (solubility fold change) (ratio); higher = more soluble protein in presence of ATP
[1] = biological target: T1, UniProt Q99640 and related entries
T1 sequence (whole entry): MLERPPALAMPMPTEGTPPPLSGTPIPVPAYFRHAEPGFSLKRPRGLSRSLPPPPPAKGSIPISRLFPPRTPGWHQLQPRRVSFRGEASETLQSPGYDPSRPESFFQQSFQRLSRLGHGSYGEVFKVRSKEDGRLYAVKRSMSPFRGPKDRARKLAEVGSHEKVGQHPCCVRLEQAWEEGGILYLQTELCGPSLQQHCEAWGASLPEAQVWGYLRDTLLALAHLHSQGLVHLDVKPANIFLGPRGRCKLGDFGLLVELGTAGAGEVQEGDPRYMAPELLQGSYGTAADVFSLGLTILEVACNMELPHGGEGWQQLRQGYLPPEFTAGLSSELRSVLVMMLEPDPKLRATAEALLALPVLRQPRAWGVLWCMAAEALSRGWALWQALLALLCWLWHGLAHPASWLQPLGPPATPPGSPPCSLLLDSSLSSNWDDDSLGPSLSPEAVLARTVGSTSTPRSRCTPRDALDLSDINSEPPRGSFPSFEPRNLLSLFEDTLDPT
Procedure, shortened: (§1)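 Jurkat crude lysate prepared with a Dounce homogeniser was treated at eight concentrations spanning 0.1 to 10 mM, 10 min at room temperature then 3 min at 37 °C. Solubilisation with 0.8% NP40 and benzonase and ultracentrifugation preceded TMT labelling of the supernatant for LC-MS/MS. Fold change against the detergent-processed vehicle was determined per replicate from vsn-normalised intensities, across three independent experiments.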

[2] = biological target: T2, UniProt Q99683 and related entries
T2 sequence (whole entry): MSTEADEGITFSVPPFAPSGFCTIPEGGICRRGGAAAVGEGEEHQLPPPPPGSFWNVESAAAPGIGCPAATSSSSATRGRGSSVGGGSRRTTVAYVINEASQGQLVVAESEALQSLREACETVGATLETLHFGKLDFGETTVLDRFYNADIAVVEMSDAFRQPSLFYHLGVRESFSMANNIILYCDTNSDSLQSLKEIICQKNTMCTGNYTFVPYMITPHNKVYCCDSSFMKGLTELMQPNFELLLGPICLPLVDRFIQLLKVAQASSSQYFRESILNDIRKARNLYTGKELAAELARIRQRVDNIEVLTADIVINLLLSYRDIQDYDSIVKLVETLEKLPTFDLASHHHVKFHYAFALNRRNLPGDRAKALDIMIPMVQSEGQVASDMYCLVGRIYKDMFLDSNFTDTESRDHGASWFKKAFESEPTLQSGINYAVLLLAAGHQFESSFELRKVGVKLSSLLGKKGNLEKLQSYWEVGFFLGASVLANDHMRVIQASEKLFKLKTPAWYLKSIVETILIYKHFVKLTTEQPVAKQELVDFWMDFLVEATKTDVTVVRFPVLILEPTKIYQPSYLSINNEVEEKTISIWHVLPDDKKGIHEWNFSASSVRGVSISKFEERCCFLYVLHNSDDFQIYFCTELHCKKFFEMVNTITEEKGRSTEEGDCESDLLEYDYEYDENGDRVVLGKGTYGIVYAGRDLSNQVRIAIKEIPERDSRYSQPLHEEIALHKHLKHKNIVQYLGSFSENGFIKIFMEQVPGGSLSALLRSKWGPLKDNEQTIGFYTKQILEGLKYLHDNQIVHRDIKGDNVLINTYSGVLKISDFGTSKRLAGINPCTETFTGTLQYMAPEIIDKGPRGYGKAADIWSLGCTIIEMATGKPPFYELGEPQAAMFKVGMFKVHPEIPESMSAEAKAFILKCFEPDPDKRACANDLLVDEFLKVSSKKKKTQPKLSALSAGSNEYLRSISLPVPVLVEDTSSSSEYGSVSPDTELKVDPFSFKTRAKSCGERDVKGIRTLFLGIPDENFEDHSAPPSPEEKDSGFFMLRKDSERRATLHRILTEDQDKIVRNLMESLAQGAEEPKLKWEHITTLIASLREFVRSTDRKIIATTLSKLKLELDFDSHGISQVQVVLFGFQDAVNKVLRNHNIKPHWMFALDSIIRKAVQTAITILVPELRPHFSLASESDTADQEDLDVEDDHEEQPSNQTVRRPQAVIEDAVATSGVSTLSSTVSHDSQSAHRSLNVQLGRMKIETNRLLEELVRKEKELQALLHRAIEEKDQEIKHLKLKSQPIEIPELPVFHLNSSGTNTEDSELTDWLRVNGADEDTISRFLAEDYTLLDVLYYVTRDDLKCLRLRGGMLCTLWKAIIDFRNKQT
Procedure, shortened: as §1

UniProt Q99733-2 = biological target: T3, UniProt Q99733-2
T3 sequence (whole entry): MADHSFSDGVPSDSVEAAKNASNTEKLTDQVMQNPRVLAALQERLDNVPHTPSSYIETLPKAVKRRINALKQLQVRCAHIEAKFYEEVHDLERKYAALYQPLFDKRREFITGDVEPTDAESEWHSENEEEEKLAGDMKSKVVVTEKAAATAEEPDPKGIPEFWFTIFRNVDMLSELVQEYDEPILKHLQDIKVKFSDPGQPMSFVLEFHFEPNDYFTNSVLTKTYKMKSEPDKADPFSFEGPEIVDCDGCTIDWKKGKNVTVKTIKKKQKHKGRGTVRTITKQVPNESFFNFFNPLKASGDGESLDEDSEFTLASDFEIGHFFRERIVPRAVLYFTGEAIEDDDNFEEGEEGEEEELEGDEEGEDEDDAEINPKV
Procedure, shortened: as §1

[3] = biological target: T4, UniProt Q99808 and related entries
T4 sequence (whole entry): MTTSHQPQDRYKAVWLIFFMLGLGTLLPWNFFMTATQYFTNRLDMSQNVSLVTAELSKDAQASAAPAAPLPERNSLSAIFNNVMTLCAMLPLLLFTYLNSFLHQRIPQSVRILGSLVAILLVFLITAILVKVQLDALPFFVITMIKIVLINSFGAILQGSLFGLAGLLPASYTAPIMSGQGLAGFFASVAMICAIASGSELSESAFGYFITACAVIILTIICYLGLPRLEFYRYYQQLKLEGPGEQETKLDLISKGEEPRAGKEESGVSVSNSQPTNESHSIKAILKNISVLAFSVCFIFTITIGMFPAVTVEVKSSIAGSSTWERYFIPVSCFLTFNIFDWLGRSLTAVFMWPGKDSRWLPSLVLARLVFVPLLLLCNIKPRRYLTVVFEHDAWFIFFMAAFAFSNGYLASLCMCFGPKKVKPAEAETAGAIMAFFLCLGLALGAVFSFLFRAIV
Procedure, shortened: as §1

UniProt Q9BQ61 = biological target: T5, UniProt Q9BQ61
T5 sequence (whole entry): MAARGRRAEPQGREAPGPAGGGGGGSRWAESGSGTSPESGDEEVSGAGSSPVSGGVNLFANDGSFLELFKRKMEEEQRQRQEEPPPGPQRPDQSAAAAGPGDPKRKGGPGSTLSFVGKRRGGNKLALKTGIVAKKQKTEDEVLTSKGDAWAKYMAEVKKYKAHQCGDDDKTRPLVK
Procedure, shortened: as §1

UniProt Q9BRT3 = biological target: T6, UniProt Q9BRT3
T6 sequence (whole entry): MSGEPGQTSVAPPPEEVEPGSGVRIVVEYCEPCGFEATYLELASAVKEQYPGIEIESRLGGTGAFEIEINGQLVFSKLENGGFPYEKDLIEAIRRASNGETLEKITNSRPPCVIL
Procedure, shortened: as §1

UniProt Q9BRX9 = biological target: T7, UniProt Q9BRX9
T7 sequence (whole entry): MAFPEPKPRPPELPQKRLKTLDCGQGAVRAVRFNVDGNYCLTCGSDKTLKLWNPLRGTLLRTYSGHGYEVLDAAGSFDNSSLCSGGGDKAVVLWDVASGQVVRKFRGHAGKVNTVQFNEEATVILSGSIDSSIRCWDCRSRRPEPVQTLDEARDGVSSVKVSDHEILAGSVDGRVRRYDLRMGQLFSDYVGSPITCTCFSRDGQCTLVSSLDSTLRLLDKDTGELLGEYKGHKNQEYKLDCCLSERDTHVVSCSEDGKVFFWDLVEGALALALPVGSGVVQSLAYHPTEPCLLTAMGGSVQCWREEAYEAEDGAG
Procedure, shortened: as §1

Nc1ncnc2c1ncn2[C@@H]1O[C@H](COP(=O)(O)OP(=O)(O)OP(=O)(O)O)[C@@H](O)[C@H]1O [adenosine triphosphate]
NP40-soluble protein abundance ([1]; concentration: 1mM): 0.919 ± 0.064
NP40-soluble protein abundance ([1]; concentration: 2mM): 0.976 ± 0.03
NP40-soluble protein abundance ([1]; concentration: 4mM): 0.999 ± 0.081
NP40-soluble protein abundance ([1]; concentration: 6mM): 0.981 ± 0.044
NP40-soluble protein abundance ([1]; concentration: 8mM): 0.981 ± 0.13
NP40-soluble protein abundance ([1]; concentration: 10mM): 0.967 ± 0.077
NP40-soluble protein abundance ([2]; concentration: 1mM): 1.09 ± 0.12
NP40-soluble protein abundance ([2]; concentration: 2mM): 1.15 ± 0.17
NP40-soluble protein abundance ([2]; concentration: 4mM): 1.23 ± 0.27
NP40-soluble protein abundance ([2]; concentration: 6mM): 1.2 ± 0.23
NP40-soluble protein abundance ([2]; concentration: 8mM): 1.17 ± 0.26
NP40-soluble protein abundance ([2]; concentration: 10mM): 1.22 ± 0.28
NP40-soluble protein abundance (UniProt Q99733-2; concentration: 1mM): 0.915 ± 0.057
NP40-soluble protein abundance (UniProt Q99733-2; concentration: 2mM): 0.958 ± 0.022
NP40-soluble protein abundance (UniProt Q99733-2; concentration: 4mM): 0.916 ± 0.038
NP40-soluble protein abundance (UniProt Q99733-2; concentration: 6mM): 0.973 ± 0.068
NP40-soluble protein abundance (UniProt Q99733-2; concentration: 8mM): 0.926 ± 0.077
NP40-soluble protein abundance (UniProt Q99733-2; concentration: 10mM): 0.949 ± 0.058
NP40-soluble protein abundance ([3]; concentration: 1mM): 0.948 ± 0.1
NP40-soluble protein abundance ([3]; concentration: 2mM): 0.92 ± 0.078
NP40-soluble protein abundance ([3]; concentration: 4mM): 0.897 ± 0.048
NP40-soluble protein abundance ([3]; concentration: 6mM): 0.895 ± 0.08
NP40-soluble protein abundance ([3]; concentration: 8mM): 0.902 ± 0.065
NP40-soluble protein abundance ([3]; concentration: 10mM): 0.913 ± 0.033
NP40-soluble protein abundance (UniProt Q9BQ61; concentration: 1mM): 0.851 ± 0.094
NP40-soluble protein abundance (UniProt Q9BQ61; concentration: 2mM): 0.905 ± 0.12
NP40-soluble protein abundance (UniProt Q9BQ61; concentration: 4mM): 0.867 ± 0.12
NP40-soluble protein abundance (UniProt Q9BQ61; concentration: 6mM): 0.897 ± 0.12
NP40-soluble protein abundance (UniProt Q9BQ61; concentration: 8mM): 0.78 ± 0.08
NP40-soluble protein abundance (UniProt Q9BQ61; concentration: 10mM): 0.806 ± 0.097
NP40-soluble protein abundance (UniProt Q9BRT3; concentration: 1mM): 0.951 ± 0.051
NP40-soluble protein abundance (UniProt Q9BRT3; concentration: 2mM): 0.908 ± 0.039
NP40-soluble protein abundance (UniProt Q9BRT3; concentration: 4mM): 0.879 ± 0.022
NP40-soluble protein abundance (UniProt Q9BRT3; concentration: 6mM): 0.963 ± 0.029
NP40-soluble protein abundance (UniProt Q9BRT3; concentration: 8mM): 0.901 ± 0.031
NP40-soluble protein abundance (UniProt Q9BRT3; concentration: 10mM): 0.843 ± 0.036
NP40-soluble protein abundance (UniProt Q9BRX9; concentration: 1mM): 1.02 ± 0.082
NP40-soluble protein abundance (UniProt Q9BRX9; concentration: 2mM): 0.999 ± 0.029
NP40-soluble protein abundance (UniProt Q9BRX9; concentration: 4mM): 1.06 ± 0.021
NP40-soluble protein abundance (UniProt Q9BRX9; concentration: 6mM): 0.993 ± 0.064
NP40-soluble protein abundance (UniProt Q9BRX9; concentration: 8mM): 1 ± 0.043
NP40-soluble protein abundance (UniProt Q9BRX9; concentration: 10mM): 1.08 ± 0.078
